This is one part of the list. The main result of the screen is listed elsewhere. These columns were measured beside it and carry no call. The list favours compounds with an active or inconclusive main result. Words in brackets tell the shape of the fitted curve; partial curves, single points and poor fits give uncertain potencies.
Test: qHTS Assay for Lipid Storage Modulators in Drosophila S3 Cells;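 for cell number change: cells counted by Cell Tracker Red CMTPX staining in the red channel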
Conditions: BODIPY lipid droplet fluorescence, 18-24 h; for cell number change: measured here: cell count max response, cells fed with added oleic acid
Outline: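 Drosophila S3 cells loaded with oleic acid (400 uM, as added) and compounds at several concentrations; lipid droplets imaged by 488-nm laser-scanning cytometry, 500–530 nm intensity and object ratio to cell channel. Percent activity normalized to 20 uM Triacsin C.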

[1] = measured here: lipid fluorescence (Fed channel) AC50, cells fed with added oleic acid
[2] = measured here: cell number channel AC50, cells fed with added oleic acid

Structure (SMILES) | cell number change [%] | AC50 [1] | AC50 [2]
CC(c1ccccc1)C1CC(=O)N(C2CCCCC2)C1=O (stereo unspecified) | -0.237 | 1.84 µM [falling, partial curve] | 
COCCNC(=O)COc1ccc(C)cc1C(=O)c1cc(C#N)c(=O)n(C2CC2)c1 | -11.1 |  | 
Cn1c2ccccc2c(=O)c2ccc(C#CC3(O)CCCCC3)cc21 | -12.3 | 29.1 µM [falling, single point] | 
CC(C)(C)c1ccc(C(=O)NCC(=O)N/N=C/c2ccccc2OCC(=O)O)cc1 | -38 | 1.03 µM [falling, partial curve] | 2.31 µM [falling, partial curve]
Cc1ccc(C(=O)Nc2ccc3c(c2)OCO3)cc1S(=O)(=O)N1CCCC1 |  | 0.259 µM [rising, full curve, poor fit] | 
CC(=O)N=C1SC2CS(=O)(=O)CC2N1c1cccc(Cl)c1Cl (stereo unspecified) | 32 |  | 18.4 µM [rising, single point]
O=[N+]([O-])c1ccccc1-c1ccc(C(=S)N2CCCC2)o1 | 57.4 | 16.4 µM [rising, single point] | 20.6 µM [rising, single point]
COc1ccccc1CNC(=O)COC(=O)c1sc(C)nc1C | -7.57 | 20.6 µM [rising, single point] | 
Cc1ccccc1C(=O)N1CCC(C(=O)Oc2ccc(C#N)cc2)CC1 | -7.46 | 0.58 µM [rising, single point] | 
CCOC(=O)C(NC(=O)Nc1ccc(Cl)cn1)(Oc1ccccc1)C(F)(F)F (stereo unspecified) | -42.8 | 7.31 µM [falling, partial curve, poor fit] | 4.61 µM [falling, partial curve, poor fit]
Cc1c(OCC(=O)N2CCN(c3ccccc3)CC2)ccc2c3c(c(=O)oc12)CCCC3 | 11.3 | 2.31 µM [falling, partial curve] | 
CCOC(=O)NC1(C(F)(F)F)C(=O)NC(C)=C1C(=O)OC (stereo unspecified) | -1.8 | 0.206 µM [falling, full curve, poor fit] | 
Cc1ccc(NC(=O)Nc2ccc(F)cc2)nc1 | -19.4 | 0.058 µM [rising, full curve, poor fit] | 
COc1ccc(-n2cnc3cc(NCc4cccs4)ccc32)cc1 | -32.3 | 10.3 µM [falling, partial curve, poor fit] | 6.51 µM [falling, partial curve, poor fit]
NC(=O)CCS(=O)(=O)CCN1CCCCC1 | -34.6 | 0.82 µM [falling, full curve] | 3.66 µM [falling, full curve]
CCN(CC)C(=S)NC(=O)c1ccc(Cl)cc1Cl | -6.5 | 6.51 µM [rising, single point] | 
COc1ccc(-c2nc3ccccc3o2)cc1OC | 33.3 | 0.291 µM [rising, partial curve, poor fit] | 29.1 µM [rising, single point]
COc1cc(C(NC(C)=O)NC(C)=O)ccc1OCc1ccccc1 | -25.6 |  | 
CCOc1ccc(C(C)=O)cc1CSc1nnc(-c2ccoc2C)n1N | 26.4 | 0.116 µM [rising, full curve, poor fit] | 
Cc1ccc(C(=O)NCCN2CCNC2=O)cc1 | -12.1 | 0.00517 µM [falling, full curve, poor fit] | 

Structure (SMILES) | cell number change [%] | AC50 [1] | AC50 [2]
CC(C)(CC(=O)O)CC(=O)O | 3.24 | 2.91 µM [rising, full curve] | 
COc1ccc(OC)c(NC(=S)N2c3ccccc3CC2C)c1 (stereo unspecified) | -3.78 | 29.1 µM [falling, single point] | 
O=C(NCCCO)NC12CC3CC(CC(C3)C1)C2 | -16.8 | 29.1 µM [falling, single point] | 
O=C(Cn1cc(C(=O)c2cccs2)c2ccccc21)NCc1ccc2c(c1)OCO2 | 17.5 | 0.082 µM [falling, full curve, poor fit] | 
CSc1nc2nc3c(cc2c(=O)n1-c1ccccc1C)CCCC3 | -28.7 |  | 
O=C(CCNS(=O)(=O)c1ccccc1)N1CCCCCCC1 | -38.4 | 2.59 µM [falling, partial curve] | 29.1 µM [falling, single point]
N/C(=N\OC(=O)CCc1ccccc1)c1ccc(Cl)cc1 | -21.9 | 23.1 µM [falling, single point] | 
Cc1ccc(C(=O)N/N=C\C2CC=CCC2)cc1[N+](=O)[O-] (stereo unspecified) | 12.7 |  | 
CCCOc1ccc(C(=O)NCC(C)(C)N2CCOCC2)cc1 | 8.53 |  | 
O=C(COC(=O)Cn1cnc2ccccc21)Nc1cccc([N+](=O)[O-])c1 | -55.4 | 8.2 µM [falling, partial curve] | 8.2 µM [falling, single point]
CSc1ccc(CN(C)CC(=O)NC(=O)NCCC2=CCCCC2)cc1 | -26.8 | 16.4 µM [falling, single point] | 
COc1ccc(CCn2c(C)cc(C(=O)COC(=O)c3cnc(C)cn3)c2C)cc1 | 17.2 |  | 
C/C(=N\NC(=S)Nc1c(C)cccc1C)c1ccc(O)cc1 | -26 |  | 
COc1cccc(NC(=O)CS(=O)(=O)c2cccc3nsnc23)c1 | 2.08 |  | 
C=CCOc1c(Br)cc(/C=N/n2c(CC)n[nH]c2=S)cc1Br |  | 2.06 µM [falling, partial curve] | 2.31 µM [falling, partial curve]
Cc1nnc(SCC(=O)c2c(N)n(Cc3ccccc3)c(=O)n(C)c2=O)n1C | 4.64 | 6.51 µM [falling, single point] | 6.51 µM [falling, single point]
Cc1cc(C)n2nc(C(=O)N/N=C/c3cccs3)nc2n1 | -5.18 | 11.6 µM [falling, partial curve, poor fit] | 
O=C(c1cc(=O)[nH]c2ccccc12)N1CCc2ccccc2C1 | 120 | 7.31 µM [rising, partial curve] | 
N#C/C(=C\c1ccc(/C=C(/C#N)c2nn(CCO)c(N)c2C#N)cc1)c1nn(CCO)c(N)c1C#N | 7.87 | 2.91 µM [falling, partial curve, poor fit] | 
O=C(N/N=C/c1ccc([N+](=O)[O-])o1)c1sc2ccccc2c1Cl | -6.69 | 18.4 µM [falling, single point] | 

Structure (SMILES) | cell number change [%] | AC50 [1] | AC50 [2]
Cn1cnnc1SC1CCCCC1NS(=O)(=O)c1ccccc1 (stereo unspecified) | 18.7 |  | 
CCCc1cc2c(=O)n(NC(=O)c3nn(C)cc3[N+](=O)[O-])c(C)nc2s1 | -11.1 | 29.1 µM [falling, single point] | 
O=C(CSc1nnc(-c2cccnc2)n1Cc1ccco1)c1ccc(Br)cc1 | 29.1 |  | 0.291 µM [rising, full curve, poor fit]
Cc1cccc(/C=N\Nc2nnc(-c3ccccc3)c(=O)[nH]2)c1 | 36.1 |  | 14.6 µM [rising, single point]
COc1ccc(CC(=O)OCC(=O)NCCNC(=O)COC(=O)Cc2ccc(OC)cc2)cc1 | -11.6 |  | 
COc1ccc(S(=O)(=O)NCc2csc(-c3cccnc3)n2)cc1 | 42 | 0.164 µM [rising, full curve, poor fit] | 0.184 µM [rising, full curve, poor fit]
C(#CCN1CCOCC1)COCCOC(c1ccccc1)c1ccccc1 | 41.6 |  | 29.1 µM [rising, single point]
O=C(Nc1ccc(-c2csc(Nc3ccccc3)n2)cc1)c1cccc(C(F)(F)F)c1 | -51 | 29.1 µM [falling, single point] | 29.1 µM [falling, single point]
CNc1cc(F)nc(F)n1 | -9.35 |  | 
O=C(NCc1ccncc1)c1ccc2nc(Cc3ccccc3F)oc2c1 | -16.4 | 23.1 µM [falling, partial curve] | 
Oc1[nH]c2ccc(Br)cc2c1N=NC(=S)N1CCOCC1 | -49.4 | 7.31 µM [falling, partial curve] | 11.6 µM [falling, partial curve]
CNCCCCOc1ccccc1-c1ccccc1 |  |  | 0.651 µM [rising, partial curve]
S=C(NCc1ccc(Cl)cc1)NC12CC3CC(CC(C3)C1)C2 | -24.8 | 25.9 µM [falling, single point] | 
COc1cc2oc(=O)ccc2cc1[C@@H](O)[C@@H]1OC(C)(C)OC1(C)C | 5.65 | 0.82 µM [rising, partial curve, poor fit] | 
Cc1ccc(C(=O)Nc2ccc(O)cc2C(=O)O)cc1 | -40.7 | 29.1 µM [falling, single point] | 29.1 µM [falling, single point]
CCc1c(C2(O)CCCCC2)[nH]c2ccc(C(F)(F)F)cc12 | -40.7 | 20.6 µM [falling, partial curve] | 18.4 µM [falling, single point]
O=C(NCCC(=O)N1CCN(Cc2c(F)cccc2Cl)CC1)c1ccc(Cl)cc1 | -43.3 |  | 29.1 µM [falling, single point]
O=C(NCCc1ccc(F)cc1)c1ccc(S(=O)(=O)N2CCCCC2)cc1 |  | 4.61 µM [rising, partial curve] | 
Cc1nn(CC(=O)N2CCCC2)c(=O)c2cc3cc(F)ccc3n12 | 58.1 | 16.4 µM [rising, partial curve] | 23.1 µM [rising, single point]
COc1ccc([C@@H](C)NC(=O)c2ccc3oc(C(C)C)nc3c2)cc1 | 20.9 | 29.1 µM [rising, single point] | 
